# Taken from: PubChem BioAssay AID602196 (INSERM, 2012)
# Purpose: 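Knock-downs that protect lung cancer cells from cisplatin or sensitise them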
# Cell system: human A549 lung cancer cells
# Reagents: siRNA pair against human genes
# Time to read-out: 48 h transfection before cisplatin; time from cisplatin to read-out not stated
# Challenge: cisplatin at a dose killing half of control-siRNA cells; exact dose and duration not given
# Measured: 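Cisplatin cell death as a shift from the 50% death seen with control siRNA; siRNAs toxic or growth-blocking alone scored 0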
# Reading the numbers: two-siRNA summed score (-2 to +2): higher = both siRNAs protect from cisplatin killing; -2 means both sensitise; mean protection from cisplatin (shift in death): higher = protection from cisplatin killing
# Hit rule: 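siRNAs harmful alone (LDH or WST-1) get 0; others get +1 for less and -1 for more cisplatin killing; genes are active when the two siRNAs give the same sign, summing to ±2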
# Meaning of the calls: active = both siRNAs shift cisplatin killing the same way; inactive = no consistent shift, or siRNA harmful alone
# Here is a random part of about 23,000 reagents. Over the whole deposit, 455 (2%) were called active. 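Active includes both protection and sensitisation; some change values fall well beyond the stated -50 to +50 range.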 A number with no mark means an inactive call. Not all columns of the deposit are shown. Not given: the amount of reagent.
Target gene,two-siRNA summed score (-2 to +2),mean protection from cisplatin (shift in death) (%)
BNIP5,0,6.8
MACROD1,0,7.5
DHFR2,-1,-1.6
OLFM2,1,15
ZFYVE9,1,13.7
AIPL1,0,0.4
MTNR1B,0,6.1
LOC401713,0,12.9
LOC402145,0,6.5
VBP1,0,-1.5
STRIP2,0,6.6
MYH1,1,10.5
LOC392617,0,4.4
LOC401732,0,7.6
LOC285643,1,-2.1
LAMP1,1,15.9
TMEM41A,0,1.9
LOC439993,0,0.2
HCP5,1,18
LOC125893,0,7.8

Next part (5 carried over from the part before).
Target gene,two-siRNA summed score (-2 to +2),mean protection from cisplatin (shift in death) (%)
LAMP1,1,15.9
TMEM41A,0,1.9
LOC439993,0,0.2
HCP5,1,18
LOC125893,0,7.8
ARL8B,0,-0.1
GRHL1,-1,-5.5
TMEM131L,1,11.1
GLRX,-1,-3.2
BACC1,0,2.4
LAMTOR4,0,3.4
CBX6,0,4.2
IL4R,1,0.9
MSC,0,-5.9
LOC441450,0,0.9
HSPBAP1,0,13.7
DKFZp434A128,1,12
PIEZO1-AS1,-1,-13.4
LAMC2,0,4
ZSCAN16,0,-7.7
LOC388794,0,2.7
FKBP9P1,1,7.9
LOC440513,-1,-6.6
PDZRN4,0,2.7
NTN5,0,2.3
OR2Z1,1,12.6
CCNJ,0,6.6
ZDHHC17,0,-29.7
PCDHB3,0,2.1
VAV2,0,17.6
LOC391717,0,6.9
LEFTY2,0,-2.4
RNF133,1,5.3
SMIM7,0,20.5
CXCL1,0,7.9
SUB1,0,-4.5
LOC390427,1,17.7
LOC392473,0,4.3
LOC390598,0,11.5
SIGIRR,-1,-9.3
ALOX15B,0,-16.6
RIPOR2,0,10
